The exact form of at least one protein or probe is not confirmed. No signal at the amounts used counts as a negative.

Four sequences from paper PMC3902906 can be followed below.

The target of this series is CsoR (CsoRSl) wild type (Streptomyces lividans 1326) (UniProt D6EK73). Briefly: ITC. Particulars: apo; ITC: 10 mM HEPES, 150 mM NaCl, pH 7.5, 25 C, 100 uM DNA into 10 uM CsoR tetramer; recombinant protein.

“CGGACAAAAACCCCTGGTGGGTTTATATGG (double strand) [csoR-A swap]”: the binding result was “no binding”.
“CGGACAAATAGCCCTGGTGGCTATATATGG (double strand) [csoR-G swap]”: the binding result is “no binding”.
The result for “CGGACAAATTCCCCTGGTGGGAATATATGG (double strand) [csoR-T swap]” reads “no binding”; that for “CGGACAAATACCCCTGG (double strand) [csoR-half site]”, “no binding”.
